Earlier results as cited in US20070082339A1, “Methods and compositions for screening for HDAC inhibitory activity” (priority 2005, published 2007).
For at least one compound, name, drawing or mass did not settle the structure.

System: TNF-α, TNF-β, IL-6, and IL1 -β
Details: cited from earlier work

Structure (SMILES): CCCC(=O)O [butyrate]
- expression of pro-inflammatory cytokines TNF-α, TNF-β, IL-6, and IL1 -β: decreases
